In paper PMC4166321:
These are yes or no findings as the source states them, for the method shown. Some results given as binding are weak or reduced against the parent protein; the word gives no strength. For some of these results: Sequences can lack the tags named with a protein.

T1: sensory histidine kinase DegS (Bacillus subtilis) (UniProt P13799)
T1 sequence: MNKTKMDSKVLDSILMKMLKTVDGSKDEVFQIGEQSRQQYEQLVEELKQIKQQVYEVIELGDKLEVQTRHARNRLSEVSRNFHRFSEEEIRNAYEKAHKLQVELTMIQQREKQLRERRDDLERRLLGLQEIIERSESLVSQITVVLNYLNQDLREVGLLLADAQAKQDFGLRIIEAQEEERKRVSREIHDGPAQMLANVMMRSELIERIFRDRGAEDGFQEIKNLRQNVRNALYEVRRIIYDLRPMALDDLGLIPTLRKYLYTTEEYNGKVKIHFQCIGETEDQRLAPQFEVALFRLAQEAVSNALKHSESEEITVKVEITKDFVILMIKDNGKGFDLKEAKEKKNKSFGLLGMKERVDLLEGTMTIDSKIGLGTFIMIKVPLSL

T2: two-component-like kinase RsbT (Bacillus subtilis) (UniProt P42411)
T2 sequence: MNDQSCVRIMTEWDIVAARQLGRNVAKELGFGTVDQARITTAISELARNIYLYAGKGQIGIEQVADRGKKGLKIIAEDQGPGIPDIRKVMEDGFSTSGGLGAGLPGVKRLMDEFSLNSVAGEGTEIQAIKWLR

T3: two-component response regulator YxdJ (Bacillus subtilis) (UniProt P42421)
T3 sequence: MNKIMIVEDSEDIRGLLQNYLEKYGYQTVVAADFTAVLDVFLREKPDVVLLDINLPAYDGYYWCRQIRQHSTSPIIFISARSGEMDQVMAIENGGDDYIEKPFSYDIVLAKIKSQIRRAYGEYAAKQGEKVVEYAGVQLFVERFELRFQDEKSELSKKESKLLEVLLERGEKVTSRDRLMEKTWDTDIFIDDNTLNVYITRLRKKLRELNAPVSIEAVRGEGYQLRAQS

B1: Hanks-type kinase PrkD (enzyme, UniProt O31435 1-256)
chain: MALKLLKKLLFDRPLKNGVILNHQYKIEECLGMGGYGLVYLCTDILAQTPYVLKQLRPTKAKKEKEKVRFQQEIKLLKNIHHPQIPGFIDEFIIDGQAYYVMQFIEGENIEELLFFRKQPFTELMALQLISQLLEIIEYLHDRLIFHSDIRTPNIIINDGRLCLIDFGLAKQLTPEEMEEIKVRKQDDFFDLGETLLFLLYSQYKGKKKKNGTWLEELTLTKEVTLLLKRLLGIEEEYQHTASIREDLNRAIQSVT
B2: Hanks-type serine/threonine kinase YabT (enzyme, UniProt P37562 1-338)
chain: MMNDALTSLACSLKPGTTIKGKWNGNTYTLRKQLGKGANGIVYLAETSDGHVALKVSDDSLSITSEVNVLKSFSKAQSVTMGPSFFDTDDAYIPSANTKVSFYAMEYIKGPLLLKYVSDKGAEWIPVLMIQLLSSLSVLHQQGWIFGDLKPDNLIVTGPPARIRCIDVGGTTKEGRAIKEYTEFYDRGYWGYGTRKAEPSYDLFAVAMIMINSVHKKEFKKTNQPKEQLRSLIEGNPLLQKYKKALFSALNGDYQSADEMKKDMLDAGQKAAQRKQPIKASPQPATRQRQQKPRQGKITKTRYTPKQKPAKSGGLFETTLIVISVLALYFAYIIFFLI
B3: phosphotyrosine-protein phosphatase YwlE (enzyme, UniProt P39155 1-150)
chain: MDIIFVCTGNTCRSPMAEALFKSIAEREGLNVNVRSAGVFASPNGKATPHAVEALFEKHIALNHVSSPLTEELMESADLVLAMTHQHKQIIASQFGRYRDKVFTLKEYVTGSHGDVLDPFGGSIDIYKQTRDELEELLRQLAKQLKKDRR

Key:
[1] = target: T1, sensory histidine kinase DegS (Bacillus subtilis); assay: two-hybrid; yeast two-hybrid, data not shown; which partner was bait is not told
[2] = target: T2, two-component-like kinase RsbT (Bacillus subtilis); assay: two-hybrid; yeast two-hybrid; bait as Gal4 BD fusion (pGBDU), prey as Gal4 AD fusion (pGAD); haploid cells of complementary mating types mixed in a 96 wells format; growth of diploids on selective media depleted for histidine
[3] = target: T3, two-component response regulator YxdJ (Bacillus subtilis); assay: two-hybrid; yeast two-hybrid, data not shown; which partner was bait is not told

| Binder | binding [1] | binding [2] | binding [3] |
| --- | --- | --- | --- |
| B1 | binds | binds | – |
| B2 | binds | – | – |
| B3 | – | – | binds |
